According to PubChem BioAssay AID1487 (National Center for Advancing Translational Sciences (NCATS), 2009):
“And” between values parts separate entries of the source, which are not always exact repeats. Equal values may be shown once. This is one part of the list. These are further read-outs of the screen, such as a control signal, another cell line or another target. No call is given for them. Most of these compounds were active or inconclusive in the main read-out, so they are no random draw. The note in brackets gives the kind of curve behind each potency; many fits are weak.

Assay: qHTS Assay for Modulators of Lamin A Splicing
Details: HeLa LMNA splicing GFP/RFP minigene ratio, 48 h
Procedure, shortened: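 Read-out is the ratio of GFP to DsRed2 object intensity, acquired by 488 nm laser-scanning cytometry on HeLa lamin A-EGFP minigene reporter cells. Compound incubation 48 hrs at 37 °C in Opti-MEM with 2% FBS; DMSO 0.5% final.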

[1] = measured here: RFP viability control channel
[2] = measured here: GFP splicing reporter channel

| SMILES | AC50 [1] | AC50 [2] |
| --- | --- | --- |
| COC(=O)c1c(NC(=S)Nc2cc(OC)c(Cl)cc2OC)sc2c1CCCCC2 | 12.6 µM [rising, partial curve] | – |
| O=C(NCCc1ccc(Cl)cc1)c1cnc2n(c1=O)CCS2 | 35.5 µM [rising, single point] | – |
| COc1ccc2ccccc2c1C(=O)/C=C\c1ccoc1 | 14.1 µM [rising, partial curve] | 12.6 µM [rising, single point] |
| CC1Cc2cc(S(=O)(=O)NCc3ccc(F)cc3)ccc2N1C(=O)C1CCC1 (stereo not given) | 0.0398 µM [falling, full curve] | – |
| CN1CCC(=C2c3ccccc3C=Cc3ccccc32)CC1 | 5.62 µM [falling, single point] and 17.8 µM [rising, partial curve, poor fit] | 5.62 µM [falling, partial curve, poor fit] and 17.8 µM [rising, single point] |
| Cc1c(Cl)cccc1NC(=S)NCCc1ccc(C(F)(F)F)cc1 | 25.1 µM [falling, single point] | 12.6 µM [falling, single point] |
| COc1ccc(N(CC(=O)NCc2ccc(C)cc2)S(=O)(=O)c2c(C)nn(C)c2C)cc1 | – | 31.6 µM [rising, single point] |
| O=C(NCCOc1ccccc1F)c1ccccc1SCc1ccc(F)cc1 | 14.1 µM [rising, single point] | 11.2 µM [rising, single point] |
| Cc1nonc1C(=O)N/N=C/c1ccc(O)cc1O | – | 0.316 µM [rising, full curve, poor fit] |
| Cc1ccc(NC(=O)C2CCN(c3nc4ccccc4[nH]3)CC2)cc1Cl | 11.2 µM [falling, partial curve, poor fit] | – |
| CN(C(=O)c1cccc(Nc2ccc(-c3ccc4c(c3)OCCO4)nn2)c1)C1CCCCC1 | 12.6 µM [rising, partial curve, poor fit] | – |
| O=C(CSc1nc2c([nH]c3ccccc32)c(=O)n1-c1ccc(F)cc1)N1CCCCCC1 | 22.4 µM [falling, single point] | 15.8 µM [falling, partial curve, poor fit] |
| Cc1ccc(NC(=O)COc2ccc(CCO)cc2-n2nc3ccccc3n2)cc1C | 11.2 µM [rising, partial curve] | 8.91 µM [rising, partial curve] |
| CN1C(=O)C2CCCCN2c2ccc(C(=O)NCc3ccccc3Br)cc21 (stereo not given) | 35.5 µM [rising, single point] | 7.08 µM [falling, partial curve] |
| CC(C)(C)C1CCc2c(sc3c2C(=O)NC(c2ccco2)N3)C1 (stereo not given) | 35.5 µM [rising, single point] | 35.5 µM [rising, single point] |
| Cc1cc(C(=O)CC#N)c(C)n1-c1ccc(OC(F)F)cc1 | 11.2 µM [rising, partial curve] | 8.91 µM [rising, partial curve] |
| Cc1oc(-c2ccccc2Cl)nc1CN1CCCC1c1ccc(F)cc1 (stereo not given) | 0.0316 µM [falling, full curve] | 1.58 µM [falling, full curve, poor fit] |
| NCC(O)C1CCCCCCC1 (stereo not given) | 5.01 µM [rising, full curve] | – |

| SMILES | AC50 [1] | AC50 [2] |
| --- | --- | --- |
| O=C1CCCN1CN(C(=O)c1ccc2c(c1)OCO2)c1cccc(Cl)c1 | 11.2 µM [rising, single point] | 8.91 µM [rising, partial curve, poor fit] |
| CC1Cc2ccccc2N1C(=O)CN1CCC(n2nnc3cc(C(F)(F)F)ccc32)CC1 (stereo not given) | 31.6 µM [rising, single point] | – |
| Cc1ccc(C(=O)c2cc([N+](=O)[O-])ccc2N2CCOCC2)cc1 | 3.98 µM [rising, full curve] | – |
| Fc1ccc(C(c2nnnn2C2CCCC2)N(Cc2ccco2)CC2CCCO2)cc1 (stereo not given) | 35.5 µM [rising, single point] | – |
| O=C(O)/C=C\C(=O)Nc1ccccc1C#Cc1ccccc1 | 35.5 µM [falling, single point] | 25.1 µM [falling, single point] |
| Cc1nn(-c2ccccc2)c(C)c1NC(=O)COc1ccc(Cl)cc1Cl | 6.31 µM [rising, full curve] | 2.51 µM [rising, full curve] |
| Cc1cccc2sc(N(Cc3cccnc3)C(=O)C3CCCCC3)nc12 | – | 3.16 µM [falling, partial curve, poor fit] |
| Brc1ccc(C2Nc3cccc4cccc(c34)N2)s1 | 1.12 µM [rising, full curve, poor fit] | – |
| O=C(/C=C/c1ccccc1)NCCC1=CCCCC1 | 14.1 µM [rising, partial curve] | – |
| CC(=O)Nc1cccc(NC(=O)COc2nncc3ccccc23)c1 | 35.5 µM [rising, single point] | – |
| COc1cccc(CNC(=O)Nc2cccs2)c1 | 17.8 µM [rising, single point] | – |
| CC1CC(C)CN(C(=O)CSc2nnc(-c3ccc(Cl)s3)o2)C1 (stereo not given) | 3.55 µM [rising, partial curve, poor fit] | – |
| CCn1c(SCc2ccccc2Cl)nc2nc3c(cc2c1=O)CCCC3 | 1.12 µM [rising, partial curve, poor fit] | 3.16 µM [falling, single point] |
| O=C(c1c(Cl)nc2sccn12)N1CCN(c2cccc(Cl)c2)CC1 | 7.08 µM [rising, partial curve] | 10 µM [rising, partial curve, poor fit] |
| Cc1ccc(O)c(Sc2cc(C)ccc2O)c1 | 35.5 µM [rising, single point] | – |
| CCN(CC)S(=O)(=O)c1ccc(S(=O)(=O)Nc2cc3c(cc2C(C)=O)OCO3)cc1 | 14.1 µM [rising, partial curve, poor fit] | – |
| COc1ccccc1N1CCN(C(=O)C2c3ccccc3Oc3ccccc32)CC1 | 11.2 µM [rising, partial curve] | – |

2 entries from above in another layout.
SMILES | AC50 [1] | AC50 [2]
COC(=O)c1c(NC(=S)Nc2cc(OC)c(Cl)cc2OC)sc2c1CCCCC2 | 12.6 µM [rising, partial curve] | –
Fc1ccc(C(c2nnnn2C2CCCC2)N(Cc2ccco2)CC2CCCO2)cc1 (stereo not given) | 35.5 µM [rising, single point] | –
